# No constants are given. Whether binding was seen depends on the method and setting.
# T1: biotinylated CT20p
# T1 sequence (peptide, biotin (position not stated)): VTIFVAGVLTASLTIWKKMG
# B1: CCT2(150-407) (domain or fragment, UniProt P78371-1 150-407)
# chain: SDEVKFRQDLMNIAGTTLSSKLLTHHKDHFTKLAVEAVLRLKGSGNLEAIHIIKKLGGSLADSYLDEGFLLDKKIGVNQPKRIENAKILIANTGMDTDKIKIFGSRVRVDSTAKVAEIEHAEKEKMKEKVERILKHGINCFINRQLIYNYPEQLFGAAGVMAIEHADFAGVERLALVTGGEIASTFDHPELVKLGSCKLIEEVMIGEDKLIHFSGVALGEACTIVLRGATQQILDEAERSLHDALCVLAQTVKDSRTV
# Target: T1, biotinylated CT20p
# Assay: condition: 0.1-50 nmol biotin-CT20p with 0.1 nmol CCT2 protein; pull-down; 0.1-50 nmol biotin-CT20p (or biotin alone) mixed with 0.1 nmol recombinant CCT2 protein in 20 mM Tris-HCl, 3 h at room temperature, then overnight at 4°C with streptavidin-agarose beads; immunoblot for CCT2; both purified
binder,measurement,value
B1,binding,no binding

# Reference: publication PMC9520665, “Chaperonin containing TCP-1 (CCT/TRiC) is a novel therapeutic and diagnostic target for neuroblastoma” (Frontiers in Oncology, 2022)
